Measurements from “University of Dundee, Small-Polar-MMV Screening Library” (2021), ChEMBL document CHEMBL3988442.

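Whole-cell assay for inhibitors of Mycobacterium tuberculosis growth, labelled Cornell in the record; the read-out is not stated. The concentration is filed as 10 mM, unlikely as a test dose, so the dose is not known. The record gives no direction; compounds strong in two other growth screens of this library score well above the rest, so higher reads as stronger inhibition. About 53,000 compounds were tested under these conditions; 1.7% (about 900) showed 50% or more at least once.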

Values are the deposited “Percent Effect”, in %. How 0% and 100% were set is not recorded. Most values in the screen are low, and negative values occur. The compounds are a random part of those screened.

compound	effect
CS(=O)(=O)NCc1noc2c1CN(C(=O)C1CC1)CC2	-6.197
CC(C)N(CC(N)=O)Cc1cccc(Br)c1	-25.33
Cc1ccccc1N1CCN(C(=O)c2ccc[nH]2)C(C)C1 (centres unmarked)	41.88
Cc1ccc(N2CCCC(NCc3ccc(-n4ccnc4)cc3)C2)nn1 (centres unmarked)	-14.42
[H][C@@]12C[C@@H](Oc3ccccc3)C[C@]1([H])CN(C(=O)c1cnn(CC)c1)C2	9.855
CC(Cn1ccnc1)NS(=O)(=O)c1ccc(C#N)c(Cl)c1 (centres unmarked)	-16.72
FC(F)(F)c1ccc(-c2c[nH]c([C@@H]3COCCN3)n2)cc1	-4.817
CCN(CC)Cc1cc(C(=O)N2CCC3(CCN(C)CC3)C2)c(C)o1	-8.485
CC(C)Cn1cnc(S(=O)(=O)Nc2cccnc2-n2cccn2)c1	43.51
CN1CCC(c2nnc(CN3CCOCC3)n2C)CC1	-4.127
O=C(Nc1ccc(-n2cncn2)c(F)c1)C1CCN(C(=O)C2CC2)CC1	-9.145
Cn1cc(CC(=O)N2CCCC(c3cc(C(F)(F)F)[nH]n3)C2)cn1 (centres unmarked)	-14.78
Cc1csc(C(=O)N2CC(S(=O)(=O)C3CCCCC3)C2)c1	-28.81
CC(NC(=O)N(C)Cc1ccc2c(c1)OCCO2)c1nncn1C (centres unmarked)	-21.05
Cc1cccnc1CN1CCN(Cc2ccc(-c3cc[nH]n3)o2)CC1	-62.3
Cc1[nH]ncc1CCCNC(=O)N1CCC(C(N)=O)CC1	19.95
Cc1cc(C(=O)N2CC(O)CO2)c2cccc(C)c2n1 (centres unmarked)	45.66
CCNC(=O)N1CCC2(C1)c1ccccc1S(=O)(=O)N2CCOC (centres unmarked)	-9.923
Cc1ccc(N2CCCC(N3CCC(N(C)C)CC3)C2=O)cc1 (centres unmarked)	-21.66
O=C(O)C(F)(F)F.O=C(O)C(F)(F)F.[H][C@]12CCN(Cc3cccs3)[C@@]1([H])CC[C@H](COCc1ccccn1)O2	-12.65
CCc1ccc(-c2cn3c(C(=O)NCC(C)C(=O)NC)csc3n2)cc1 (centres unmarked)	9.06
O=C1COc2ccc(S(=O)(=O)NCCC3=CCCCC3)cc2N1	1.559
CCC(C)Oc1ccc(CNCCNC(C)=O)cc1OC (centres unmarked)	-42.04
NC(=O)C1CCN(C(=O)CCn2ccc3ccc(F)cc32)CC1	26.48
Cc1cncc(C(=O)N2C[C@@H](C(=O)O)[C@H](C(C)C)C2)c1	-12.74
O=C(C1CCSCC1)N1CCC2(CC1)COC(COCC1CC1)C2 (centres unmarked)	20.2
[H][C@@]12CCN(Cc3cccc(C)n3)C[C@]1(C(=O)N1CCOCC1)CCO2	-3.945
Cc1cc(C(F)(F)F)nn1CCCNC(=O)C1CCC1	40.84
Cc1ccccc1C(C)NC(=O)CN1CCN(Cc2ccc(Br)s2)CC1 (centres unmarked)	27.98
O=C(NCCCO)Nc1cnc2cc(Cl)ccc2c1O	81.69
CN1CCOCC12CCN(Cc1ccoc1)CC2.O=C(O)C(F)(F)F.O=C(O)C(F)(F)F	11.99
CCCC(C)NC(=O)c1ccc(-c2ccco2)[nH]c1=O (centres unmarked)	12.59
Cc1noc(C)c1CN1CCc2ncnc(-c3ccc(F)cc3)c2CC1.O=C(O)C(F)(F)F	2.248
Cc1ccccc1-n1ncc(C(=O)N2CCCC2c2cnn(C)c2)c1C (centres unmarked)	22.1
CCCOCC(=O)NS(=O)(=O)c1ccc2c(c1)OCCCO2	7.459
CC(C(=O)NCc1ccc(N2CCNC(=O)C2)cc1)c1cccs1 (centres unmarked)	-9.507
CCN(CC)CCNc1ncc(-c2cc(C)no2)c(-c2ccoc2C)n1	9.853
Cc1cnc(C(=O)N2CCCC(c3nccn3Cc3cscn3)C2)cn1 (centres unmarked)	-9.745
O=C(O)C(F)(F)F.c1cc(COC[C@H]2CCC[C@]23CNCCO3)ccn1	-1.245
O=C1CCNc2ncc(-c3cccc(Cl)c3)cc2CN1C1CC1	17.39
COCC(=O)N1CCCC(c2csc(NC(C)=O)n2)C1 (centres unmarked)	-15.63
O=C(O)C(F)(F)F.O=C(O)C(F)(F)F.[H][C@@]12CCN(c3ncccn3)[C@]1([H])CC[C@@H](C(=O)NCc1cccnc1)O2	-21.92
COC(=O)[C@H](C)NC(=O)c1cnc(Cc2ccc(F)cc2)s1	15.4
COc1ccc(C)cc1NS(=O)(=O)c1ccc(CCNC(C)=O)s1	4.877
CCS(=O)(=O)CC(=O)Nc1cc(-c2cccc(F)c2F)n[nH]1	15.94
Cc1ncsc1C(=O)N1CCC(Nc2cccnn2)CC1	27.34
Cl.Cl.[H][C@@]12OCCC[C@]1([H])NC[C@H]2NC(=O)c1cccnc1	3.141
Cn1ccc2ccc(C(=O)N3CCN(C(=O)OC(C)(C)C)CC3)cc21	35.94
CNc1cc(N2CCCC2CNCc2ccc(Cl)o2)ncn1 (centres unmarked)	23.74
COc1ccc(C)cc1-c1csc(N)c1C#N	-13.61
CC(C(=O)N1CCCC1)N1CCN(c2ncc(Cl)cn2)CC1 (centres unmarked)	12.56
Cc1ccc2nc(C3CCCN3C(=O)c3cc(=O)[nH]c(=O)[nH]3)[nH]c2c1 (centres unmarked)	-27.44
[H][C@@]12COC[C@]1(COc1cccnc1)CN(C(=O)c1ncccn1)C2	-11.7
Clc1ccc(-c2nnc([C@H]3CCN(C4CCCCC4)C3)o2)cc1	-3.477
[H][C@@]12C[C@H](C(=O)Nc3ccccc3)[C@@]([H])(CN(S(=O)(=O)C3CC3)C1)O2	12.5
CN(Cc1nc(-c2cccnc2)no1)C(=O)c1cccn1C	-5.897
Cc1ccc(N2CCc3ncnc(N(C)C)c3CC2)nn1	8.348
Cc1sc2nc(SC(C)c3nc(C(C)(C)C)no3)nc(N)c2c1C (centres unmarked)	31.07
Cn1ccnc1CN1CCCN(C(=O)COC2CCCC2)CC1	2.097
Cc1cc(N2CCC(O)(CN(C)C)C2)c2cc3c(cc2n1)OCO3 (centres unmarked)	-36.99
Cc1nn(CCO)cc1CN1CCCN(C2CCCC2)CC1	-11.89
Cc1c(NC(=O)NC2CCOCC2)cccc1C(=O)N1CCCC1	-30.38
Cc1ccc(CN(C)C(=O)c2ccc(NC3CC3)nc2)o1	-13.51
N#Cc1ccc(N2CCC3(CC2)CC(OCc2cccnc2)CO3)cc1.O=C(O)C(F)(F)F (centres unmarked)	25.8
CCOCCOC(C)C(=O)Nc1ccc2ccn(CC(=O)NC)c2c1 (centres unmarked)	22.05
CCc1nccn1C1CCCN(C(=O)c2cnn(C)c2C2CC2)C1 (centres unmarked)	7.22
CCn1ncc2c1C(COCC1CC1)CN(c1ccc(C)nn1)C2.O=C(O)C(F)(F)F.O=C(O)C(F)(F)F (centres unmarked)	9.224
Cc1cc2nc(C3CCCCC3)c(-c3ccnc(NCCO)n3)cn2n1	-32.24
CCc1cc(N[C@@H]2CC[C@@H](N)C2)n2nc(C)c(C)c2n1	13.02

Some entries from above, unchanged:

compound,effect
Cc1cc(C(=O)N2CC(O)CO2)c2cccc(C)c2n1 (centres unmarked),45.66
Cc1[nH]ncc1CCCNC(=O)N1CCC(C(N)=O)CC1,19.95
O=C1COc2ccc(S(=O)(=O)NCCC3=CCCCC3)cc2N1,1.559
NC(=O)C1CCN(C(=O)CCn2ccc3ccc(F)cc32)CC1,26.48